From paper PMC5014153

Protein sequences, listed by entry. Tags and fused reporters are not part of them. Lines headed by an entry give the natural chain unless they say otherwise; changes in a name come on top.
UniProt Q9C5T4: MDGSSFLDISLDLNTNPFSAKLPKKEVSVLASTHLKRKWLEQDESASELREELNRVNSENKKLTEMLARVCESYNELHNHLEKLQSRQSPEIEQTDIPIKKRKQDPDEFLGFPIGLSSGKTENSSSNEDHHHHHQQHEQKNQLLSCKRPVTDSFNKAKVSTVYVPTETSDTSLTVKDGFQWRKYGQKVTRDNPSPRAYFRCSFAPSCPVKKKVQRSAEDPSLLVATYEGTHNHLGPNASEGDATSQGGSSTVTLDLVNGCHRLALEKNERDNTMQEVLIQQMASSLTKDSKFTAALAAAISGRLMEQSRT

What was measured:
6xHis-WRKY18 = 6xHis-WRKY18 (UniProt Q9C5T4); experiment: EMSA; settings: 25 mM Hepes pH 8.0, 40 mM KCl, 5 mM MgCl2, 1 mM DTT, 1 mM EDTA, 8% glycerol, 50 ng protein, 20 fmol probe, 30 min at 28 C, native PAGE, recombinant protein, residues 1-310, protein details: N-terminal Trx, HRV 3C site (pET48b), label: 5' biotin on each strand
6xHis-WRKY40 = target: T1, 6xHis-WRKY40 (UniProt Q9SAH7); experiment: EMSA; settings: 25 mM Hepes pH 8.0, 40 mM KCl, 5 mM MgCl2, 1 mM DTT, 1 mM EDTA, 8% glycerol, 50 ng protein, 20 fmol probe, 30 min at 28 C, native PAGE, recombinant protein, residues 1-302, protein details: N-terminal Trx, HRV 3C site (pET48b), label: 5' biotin on each strand
T1 sequence (looked up): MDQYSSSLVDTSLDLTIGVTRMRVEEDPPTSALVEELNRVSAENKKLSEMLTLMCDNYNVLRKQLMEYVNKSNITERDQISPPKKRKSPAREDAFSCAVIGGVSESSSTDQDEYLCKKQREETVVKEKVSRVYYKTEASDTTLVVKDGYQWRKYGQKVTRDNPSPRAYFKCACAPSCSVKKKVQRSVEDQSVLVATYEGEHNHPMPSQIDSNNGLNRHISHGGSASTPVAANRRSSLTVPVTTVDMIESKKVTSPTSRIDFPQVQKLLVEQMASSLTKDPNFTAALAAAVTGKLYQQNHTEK

TTGATGTTACTCGTCTAGTTAAACTTAAATTGCAAGATATTGTATTATTTTACAAAAACCAAAATTTGACTGGCTTGGCT (double strand) [ProCRK5-1 mW2/W3]
binding result (6xHis-WRKY18): binds more weakly | binding result (6xHis-WRKY40): binds more weakly

A weaker result is weaker than the reference pair of the same experiment. For some assays here: Where a protein sequence is shown, tags need not be part of it.
